Assay results as given in PubChem BioAssay AID2685 (National Center for Advancing Translational Sciences (NCATS), 2010).
The other results are listed elsewhere or left out. These are further read-outs of the screen, such as a control signal, another cell line or another target. No call is given for them. Most of these compounds were active or inconclusive in the main read-out, so they are no random draw. Words in brackets tell the shape of the fitted curve; partial curves, single points and poor fits give uncertain potencies.

Experiment: qHTS Assay for Lipid Storage Modulators in Drosophila S3 Cells;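 on cell number change: cells counted by Cell Tracker Red CMTPX staining in the red channel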
Conditions: BODIPY lipid droplet fluorescence, 18-24 h; for cell number change: measured here: cell count max response, cells fed with added oleic acid
Procedure, shortened: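 Drosophila S3 cells got compounds at several concentrations plus oleic acid (400 uM solution). Laser-scanning cytometry with 488 nm excitation read lipid droplets at 500-530 nm and cells at 575-640 nm. Percent activity was relative to 20 uM Triacsin C.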

[1] = measured here: lipid fluorescence (Fed channel) AC50, cells fed with added oleic acid
[2] = measured here: cell number channel AC50, cells fed with added oleic acid

Compound	cell number change	AC50 [1]	AC50 [2]
COc1ccc(C(=O)C2CCCCC2=O)cc1 (stereo unspecified)	-8.93%	103 nM [falling, full curve, poor fit]	–
Cc1cccc(NC(=O)CN2C(=O)c3ccccc3S2(=O)=O)n1	7.63%	–	–
Cc1ccc(OC(C)C(=O)N(C)Cc2ccccc2)c([N+](=O)[O-])n1 (stereo unspecified)	-8.65%	29100 nM [falling, single point]	–
COc1cccc(-n2c(O)c(C=NCc3ccccn3)c3ccccc3c2=O)c1	24%	92 nM [rising, full curve]	130 nM [rising, full curve, poor fit]
COc1ccc(C)cc1NC(=O)CN1C(=O)c2cccc3cccc1c23	–	29100 nM [falling, single point]	1300 nM [rising, full curve]
CN1C(=O)CC(N2CCN(CCN=CC3=C(O)CC(C)(C)CC3=O)CC2)C1=O (stereo unspecified)	-34.8%	16400 nM [falling, partial curve]	2590 nM [falling, full curve]
O=C(CN1CCN(c2cccc(Cl)c2)CC1)Nc1ccc([N+](=O)[O-])cc1C(=O)Nc1ccccc1F	-10.8%	1160 nM [falling, single point]	820 nM [falling, partial curve, poor fit]
COc1cc(OC)cc(C(=O)NN2CCCCC2)c1	-81.6%	20600 nM [falling, partial curve]	32600 nM [falling, single point]
CCOc1ccc(S(=O)(=O)Nc2cc(OC)ccc2OC)cc1	-13.9%	6510 nM [rising, single point]	–
COc1ccc(OCC(=O)Nc2c(C(=O)N3CCC(N4CCCCC4)CC3)oc3ccccc23)cc1	5.27%	–	73.1 nM [rising, full curve, poor fit]
Cc1ccc(N2C(=O)CC(SCC(=O)Nc3ccc(S(N)(=O)=O)cc3)C2=O)cc1 (stereo unspecified)	-3.25%	146 nM [falling, full curve, poor fit]	103 nM [falling, full curve, poor fit]
Cc1ccc2nc(SCC(=O)Nc3cccc(F)c3)nc(=O)n2c1	–	82 nM [falling, full curve, poor fit]	–
COc1ccccc1N(C)S(=O)(=O)c1ccc(C(=O)Nc2ccc(C)cc2C)cc1	–	580 nM [rising, full curve]	184 nM [rising, partial curve, poor fit]
Cc1cc(CN(C)C)c(O)c(C2(C)CCCCC2)c1	-41.4%	29100 nM [falling, single point]	820 nM [falling, full curve]
Cn1cc2ccc([N+](=O)[O-])cc2n1	30.6%	–	14600 nM [rising, single point]
CC1CCCC(C)N1c1nnc(NC(=O)Cn2c(=O)oc3ccccc32)s1 (stereo unspecified)	24.2%	580 nM [falling, full curve, poor fit]	–
Cc1ccc(C(CC(=O)O)C2CCOC(C)(C)C2)cc1 (stereo unspecified)	6.67%	580 nM [falling, full curve, poor fit]	–
Cc1c(C(=O)Nc2ccc(F)cc2)sc2ncn(CC(=O)N3CCCCC3)c(=O)c12	20.2%	–	–
O=C(NNS(=O)(=O)c1ccccc1)C(O)(c1ccccc1)c1ccccc1	34.6%	4.61 nM [falling, full curve, poor fit]	29100 nM [rising, single point]
COc1ccc(CCNC(=O)C2CCCN(S(=O)(=O)c3ccc(F)cc3)C2)cc1 (stereo unspecified)	28%	29100 nM [rising, single point]	–

Compound	cell number change	AC50 [1]	AC50 [2]
OCC[C@H]1C[C@@H](O)[C@H](O)[C@@]2(OCCc3ccccc32)O1	18.3%	8200 nM [rising, partial curve, poor fit]	–
Cc1ccc(C(=O)Nc2cccc(C(F)(F)F)c2)cc1Nc1cncnc1	18.8%	–	–
O=c1c2cc(F)ccc2[nH]c(=S)n1CCCN1CCOCC1	25.5%	6510 nM [rising, single point]	–
Cc1oc(-c2ccccc2F)nc1CS(=O)CC(=O)NC1CCCCC1 (stereo unspecified)	-5.48%	–	–
CCOC(=O)c1cc(-c2ccccc2)sc1NC(=O)C(C)Sc1nnnn1C (stereo unspecified)	-15.4%	651 nM [falling, single point]	–
Cc1c(Cl)cccc1NC(=O)CSc1nnc(C)n1-c1ccccc1	-11.4%	–	–
Cc1cccc(NC(=O)CSc2ccc(-c3ccc4c(c3)OCO4)nn2)c1C	13.5%	2060 nM [rising, full curve]	–
COc1cc(CC(=O)N2CCc3ccccc32)cc(OC)c1OC	-14.3%	–	–
CCc1cccc(C)c1NC(=S)NCC1CCN(c2ccc(OC)cc2)C1 (stereo unspecified)	-34.7%	–	517 nM [falling, full curve, poor fit]
N/C(=N\OC(=O)COc1cc(Cl)c(Cl)cc1Cl)c1ccncc1	24.2%	–	–
CC1Cc2ccccc2N1Cc1cc(=O)c(OCC(=O)NCCc2ccccc2)co1 (stereo unspecified)	–	29100 nM [falling, single point]	184 nM [falling, full curve, poor fit]
OCc1cn(-c2ccccc2)nc1-c1ccc(Br)cc1	-19.9%	16400 nM [falling, single point]	–
COc1cccc(C2=CC(c3cccs3)n3nnnc3N2)c1 (stereo unspecified)	35.4%	–	1840 nM [rising, full curve, poor fit]
COc1ccc(/C=C/c2cc[n+](C(=O)Cc3ccccc3)cc2)cc1	52.7%	–	6510 nM [falling, single point]
Cc1nc(SCc2c(F)cccc2Cl)c2c(=O)n(C)c(=O)n(C)c2n1	15.9%	–	1030 nM [rising, full curve, poor fit]
COc1ccc(Cl)cc1NC(=O)CN(C)C(=O)c1cc(=O)c2ccccc2o1	-1.39%	1840 nM [rising, single point]	–
CCC(=O)c1ccc(N2CCN(C(=O)c3ccc(F)cc3)CC2)c(F)c1	-1.91%	3660 nM [falling, partial curve, poor fit]	6510 nM [falling, single point]
CCOC(=O)C(=O)Nc1ccc(OCc2ccccc2)cc1	7.76%	–	–
N#C/C(=C/c1cn(-c2ccccc2)nc1-c1cccc(OCc2ccc(F)cc2)c1)C(=O)NCCCn1ccnc1	-16.1%	29100 nM [falling, single point]	–
Cc1cccc(C(=O)N2CCCC(N3CCN(c4cccc(Cl)c4)CC3)C2)n1 (stereo unspecified)	17.9%	–	–

Compound	cell number change	AC50 [1]	AC50 [2]
COc1ccc(N2CCN(C(=O)CSc3ncn[nH]3)CC2)cc1	-24.5%	6510 nM [rising, single point]	–
Cc1ccc(O)c(NC(=O)c2ccccc2-c2ccccc2C(=O)O)c1	-11.1%	116 nM [falling, partial curve, poor fit]	–
O=C(Nc1ccccc1)Nc1nnc(SCc2ccc(Cl)cc2)s1	-30.9%	6510 nM [rising, single point]	29100 nM [falling, single point]
Cc1ccc(S(=O)(=O)N2CCOCC2)cc1C(=O)Nc1ccccn1	–	580 nM [falling, single point]	–
CCC(=O)Nc1cc(OC)cc(OC)c1	8.36%	13000 nM [falling, partial curve, poor fit]	–
CCOC(=O)C(NCCc1ccccc1F)(NC(=O)CC)C(F)(F)F (stereo unspecified)	-7.96%	32600 nM [falling, single point]	–
c1cncc(CSc2nnc3ccc(-c4ccco4)nn23)c1	-49%	651 nM [falling, partial curve, poor fit]	1840 nM [falling, partial curve, poor fit]
COc1cc(CN2CCN(C(=O)c3cccc4ccccc34)CC2)cc(OC)c1O	7.62%	29100 nM [falling, single point]	–
Nc1nc(N)c2cc(Sc3ccc4ccccc4c3)ccc2n1	-65%	–	9200 nM [falling, partial curve]
COc1ccc2oc(=Nc3ccc(C(=O)O)cc3)c(C(=O)NCc3ccco3)cc2c1	-18.6%	–	6.51 nM [falling, full curve, poor fit]
CCOC(=O)C1(Cc2cccc(OC)c2)CCCN(S(=O)(=O)N(C)C)C1 (stereo unspecified)	-13.2%	–	–
Cc1c(C(=O)N2CCN(C(=O)c3ccco3)CC2)oc2c(Cl)cccc12	8.99%	366 nM [rising, full curve, poor fit]	2310 nM [rising, partial curve]
O=C(Nc1cccnc1)c1cccc(S(=O)(=O)N2CCCCC2)c1	-2.29%	6.51 nM [rising, full curve, poor fit]	–
O=C(NCCCn1ccnc1)/C(=C\c1cccnc1)NC(=O)c1cccc(Br)c1	16%	11600 nM [rising, partial curve, poor fit]	–
CN1C(=O)C(=O)/C(=C(/O)c2ccccc2)C1c1ccc([N+](=O)[O-])cc1 (stereo unspecified)	-9.12%	–	–
CC1CCN(C(=O)CN(c2ccccc2)S(=O)(=O)N(C)C)CC1	-39.2%	–	–
CC1=NN(c2ccccc2)C(=O)/C1=C\c1cn(CCC#N)nc1-c1ccc(Cl)cc1	-19.7%	13 nM [falling, full curve, poor fit]	–
C/C(=C\c1cccc(Cl)c1Cl)C(=O)c1c(C)cc(C)[nH]c1=O	6.08%	23100 nM [falling, single point]	–
CC(=O)Nc1cnn(Cc2ccc(Br)cc2)c1	-50.5%	18400 nM [falling, partial curve]	7310 nM [falling, partial curve]

2 of the compounds above, with bars between the fields.
Compound | cell number change | AC50 [1] | AC50 [2]
Cc1ccc(O)c(NC(=O)c2ccccc2-c2ccccc2C(=O)O)c1 | -11.1% | 116 nM [falling, partial curve, poor fit] | –
CCOC(=O)C(NCCc1ccccc1F)(NC(=O)CC)C(F)(F)F (stereo unspecified) | -7.96% | 32600 nM [falling, single point] | –
